The list is a part of this screen's results and no random one: it is rich in T/C values a quarter to a half above the control, in often repeated tests (any T/C) and in doses without a T/C. Other doses and runs of a compound stand elsewhere. T/C is the treated group as % of the vehicle group. Some entries give survivors of the animals treated and no T/C: the source holds a T/C of zero for them, seemingly a mark for toxic or unscored doses. Some doses without a T/C left all or most animals alive at the check, yet need not have been tolerated: the source hardly ever lists a survival T/C far under the control, and the zero likely stands for such cases as well. Survivors were counted at the toxicity check, usually on the fifth day, unless a day is given; later deaths do not show. Schedules are NCI's codes, taken here to give the interval after Q, in days (D) or hours (H), and the number of doses after X. Some entries were tested several times; the results are listed from low to high. For survival time, this PubChem deposit counts one and a half times the control or more as active, and values a quarter to a half above the control carry no call in these data; other NCI protocols may use other cut-offs. Some T/C values carry the count of animals alive at the toxicity check (mostly the fifth day); without a count, all were alive then.

The record followed here is PubChem BioAssay AID292 (DTP/NCI, 2004).

The test system of this assay is B6C3F1 mice, ip Sarcoma M5076, median survival T/C. Description: NCI In Vivo Anticancer Drug Screen. Data for tumor model Sarcoma M5076 (intraperitoneal) in B6C3F1 mice. The note with it: T/C endpoint: median survival time, higher T/C = longer survival. Summed up: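 Tumour cells were transplanted into mice, compound or vehicle was given, survival of both groups was followed, and the treated figure was expressed over the control figure.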

The mark [1] stands for this setting: dose: 300.0 mg/kg/injection, schedule: Q04DX004 (ip), vehicle: saline with Tween-80.
Setting [2] is: dose: 800.0 mg/kg/injection, schedule: Q04DX004 (ip), vehicle: Klucel (hydroxypropylcellulose) (HPC).
Setting [3] is: dose: 50.0 mg/kg/injection, schedule: Q04DX004 (ip), vehicle: Klucel (hydroxypropylcellulose) (HPC).
[4] abbreviates: dose: 200.0 mg/kg/injection, schedule: Q04DX004 (ip), vehicle: Klucel (hydroxypropylcellulose) (HPC).
[5] abbreviates: dose: 400.0 mg/kg/injection, schedule: Q04DX004 (ip), vehicle: Klucel (hydroxypropylcellulose) (HPC).
The mark [6] stands for this setting: dose: 50.0 mg/kg/injection, schedule: Q04DX004 (ip), vehicle: saline with Tween-80.
The mark [7] stands for this setting: dose: 100.0 mg/kg/injection, schedule: Q04DX004 (ip), vehicle: saline with Tween-80.
The mark [8] stands for this setting: dose: 200.0 mg/kg/injection, schedule: Q04DX004 (ip), vehicle: saline with Tween-80.
[9] abbreviates: dose: 400.0 mg/kg/injection, schedule: Q04DX004 (ip), vehicle: saline with Tween-80.

Consider `COc1cc(NCc2ccc3nc(N)nc(N)c3c2C)cc(OC)c1OC` (tested in a mixture with another compound), for which, for the setting “dose: 160.0 mg/kg/injection, schedule: Q04DX004 (ip), vehicle: water”, the survivor count is given as 3 of 10 on day 14.

Regarding `COC(COC(=O)N1CCN(C=O)CC1)C1=C(N2CC2)C(=O)C(C)=C(N2CC2)C1=O` (stereo not drawn), for the setting “dose: 2.16 mg/kg/injection, schedule: Q04DX004 (ip), vehicle: saline”, the T/C was 126 % of control. The survivor count by setting is: (dose: 16.67 mg/kg/injection, schedule: Q04DX004 (ip), vehicle: saline) 0 of 10 on day 14; (dose: 24.0 mg/kg/injection, schedule: Q04DX004 (ip), vehicle: saline) 1 of 10 on day 14.

On to `CCOP1(OCC)(SSC)OC(=O)C(C)S1` (stereo not drawn), for which the survivor count by setting is: (dose: 150.0 mg/kg/injection, schedule: Q04DX004 (ip), vehicle: saline with Tween-80) 3 of 10 on day 14; under setting [1], 0 of 10 on day 14.

Regarding `O=c1c(-c2nn[nH]n2)cnc2sc3cc(Cl)ccc3n12`, the survivor count is recorded as 10 of 10 on day 14 under setting [1] and 5 of 10 on day 14 (dose: 600.0 mg/kg/injection, schedule: Q04DX004 (ip), vehicle: saline with Tween-80).

For the compound `Cc1nc(N)nc(N)c1-c1ccc(Cl)c(Cl)c1`, the T/C (dose: 20.0 mg/kg/injection, schedule: Q04DX004 (ip), vehicle: saline) is 146 % of control [9 of 10 alive on day 14].

For the compound `Cc1cc(C)cc(N(C2=NCCS2)C2=NCCS2)c1`, the survivor count under setting [2] is recorded as 10 of 10 on day 14.

`CC(O)CCC(=O)c1ccoc1` (stereo not drawn): the survivor count (dose: 20.0 mg/kg/injection, schedule: Q03HX012 (ip), vehicle: saline) was 0 of 10 on day 14.

Take `CC(=O)N1CCCN(C)/C1=N/[N+](=O)[O-]`: the survivor count (dose: 600.0 mg/kg/injection, schedule: Q04DX004 (ip), vehicle: saline) is reported as 0 of 10 on day 14.

As for `CCC(=O)[O][Bi]([c]1ccccc1)[c]1ccccc1`, the survivor count reads like this: (dose: 48.0 mg/kg/injection, schedule: Q04DX004 (ip), vehicle: Klucel (hydroxypropylcellulose) (HPC)) 0 of 10 on day 14; under setting [3], 10 of 10 on day 14; (dose: 100.0 mg/kg/injection, schedule: Q04DX004 (ip), vehicle: Klucel (hydroxypropylcellulose) (HPC)) 1 of 10 on day 14; under setting [4], 0 of 10 on day 14; under setting [5], 0 of 10 on day 14; under setting [2], 0 of 10 on day 14.

As for `Cc1cc2c(=O)cc(-c3ccccc3)oc2c(C(=O)O)c1C`, the survivor count is 5 of 10 on day 14 (dose: 250.0 mg/kg/injection, schedule: Q04DX004 (ip), vehicle: saline with Tween-80) and 0 of 10 on day 14 (dose: 500.0 mg/kg/injection, schedule: Q04DX004 (ip), vehicle: saline with Tween-80).

On to `NCCCN=c1ccc2c3c1c(O)c1c(O)ccc(=O)c1c3[nH]n2CCNCCO`, for which the T/C by setting is: (dose: 2.0 mg/kg/injection, schedule: Q04DX004 (ip), vehicle: water) 125 % of control; (dose: 4.0 mg/kg/injection, schedule: Q04DX004 (ip), vehicle: water) 149 % of control; (dose: 32.0 mg/kg/injection, schedule: Q04DX004 (ip), vehicle: water) 136 % of control.

For the compound `Nc1nc(N)c2cc(C=O)ccc2n1`, the survivor count reads like this: (dose: 25.0 mg/kg/injection, schedule: Q04DX004 (ip), vehicle: water) 5 of 10 on day 14 and 10 of 10 on day 14; (dose: 50.0 mg/kg/injection, schedule: Q04DX004 (ip), vehicle: water) 0 of 10 on day 14.

For `c1ccc2c(c1)oc1cc3c(cc12)ncc1cccn13`, the survivor count is listed as 9 of 10 on day 14 under setting [6] and 6 of 10 on day 14 under setting [7].

As for `COc1cc2c(c3c1/c(=N\N=c1/c4ccccc4n(C)c4c5c(cc(OC)c14)OC(C)(C)C=C5)c1ccccc1n3C)C=CC(C)(C)O2`, the survivor count reads like this: (dose: 25.0 mg/kg/injection, schedule: Q04DX004 (ip), vehicle: saline with Tween-80) 6 of 10 on day 14; under setting [6], 5 of 10 on day 14; under setting [7], 3 of 10 on day 14; under setting [8], 0 of 10 on day 14.

With `CC(/C=C/C1OC(=O)C=CC1C)=C\C(C)C/C=C/C(C)=C/C(CO)C(=O)C(C)C(O)C(C)C/C(C)=C/C(=O)O` (stereo not drawn), the T/C was 132 % of control (dose: 125.0 micrograms/kg/injection, schedule: Q04DX004 (ip), vehicle: other) and 129 % of control (dose: 250.0 micrograms/kg/injection, schedule: Q04DX004 (ip), vehicle: other).

Regarding `CC#CCOCC(O)CCl` (stereo not drawn), the survivor count is on record as 10 of 10 on day 14 (dose: 400.0 mg/kg/injection, schedule: Q04DX004 (ip), vehicle: saline); 0 of 10 on day 14 (dose: 800.0 mg/kg/injection, schedule: Q04DX004 (ip), vehicle: saline); 0 of 10 on day 14 (dose: 800.0 mg/kg/injection, schedule: Q04DX004 (ip), vehicle: suspension in saline).

`COc1ccc2nc(C)cc(N/N=C/c3cccnc3)c2c1`: under setting [4], the survivor count was 0 of 10 on day 14.

For `C=Cc1cc(OC)c2c(c1)c(=O)oc1c2cc(OC)c2c(O)ccc(C3OC(C(C)O)C(O)C3O)c21` (stereo not drawn), the survivor count is listed as 9 of 10 on day 14 under setting [5] and 3 of 10 on day 14 under setting [2].

As to `N/C(=N/N=C/c1cc(Br)cc(Br)c1O)NO`, the survivor count runs as follows: (dose: 200.0 mg/kg/injection, schedule: Q04DX004 (ip), vehicle: suspension in saline) 5 of 10 on day 14; (dose: 400.0 mg/kg/injection, schedule: Q04DX004 (ip), vehicle: suspension in saline) 3 of 10 on day 14.

For `O=c1[nH]cnc2c1cnn2CN1CCOCC1`, the survivor count under setting [5] is on record as 4 of 10 on day 14.

With `O=S1(=O)C(c2ccc(F)cc2)=C(O)c2cc3ccccc3nc21`, the survivor count reads like this: (dose: 137.5 mg/kg/injection, schedule: Q04DX004 (ip), vehicle: sodium bicarbonate) 10 of 10 on day 14; (dose: 275.0 mg/kg/injection, schedule: Q04DX004 (ip), vehicle: sodium bicarbonate) 6 of 10 on day 14.

Regarding `COc1ccc(C(N)=O)cc1N=NN(C)C`, the T/C was 139 and 141 % of control (dose: 25.0 mg/kg/injection, schedule: Q04DX004 (ip), vehicle: Klucel (hydroxypropylcellulose) (HPC)); 138 [8 of 10 alive on day 14] and 149 % of control under setting [3]. Moreover, the survivor count under setting [4] is 1 of 10 on day 14 and 2 of 10 on day 14.

Turning to `O=C(N/N=C/c1ccco1)c1ccc(OCc2nc3ccccc3[nH]2)cc1`, the survivor count under setting [9] is given as 10 of 10 on day 14.

For the compound `OC1(c2ccccc2)c2ccccc2NC2=NCCN21` (stereo not drawn), the survivor count reads like this: under setting [7], 1 of 10 on day 14; under setting [8], 0 of 10 on day 14; under setting [9], 0 of 10 on day 14.

As to `Cc1c2ccccc2cc2cccc[n+]12`, the survivor count is listed as 0 of 10 on day 9 (dose: 80.0 mg/kg/injection, schedule: Q04DX004 (ip), vehicle: saline) and 0 of 10 on day 9 (dose: 160.0 mg/kg/injection, schedule: Q04DX004 (ip), vehicle: saline).

On to `C[C@@]12C(=O)OC(=O)[C@]1(C)[C@H]1CC[C@@H]2O1`, for which the survivor count (dose: 2000.0 micrograms/kg/injection, schedule: Q01DX009 (ip), vehicle: acetone) was 1 of 10 on day 14.

Consider `O=C[C@@H](CO)O[C@H](C=O)c1c[nH]c(=O)[nH]c1=O`, for which the T/C was 129 and 139 % of control (dose: 50.0 mg/kg/injection, schedule: Q04DX004 (ip), vehicle: saline); 140 % of control [9 of 10 alive on day 14] (dose: 83.3 mg/kg/injection, schedule: Q04DX004 (ip), vehicle: saline). Moreover, the survivor count by setting is: (dose: 100.0 mg/kg/injection, schedule: Q04DX004 (ip), vehicle: saline) 10 of 10 on day 14; (dose: 200.0 mg/kg/injection, schedule: Q04DX004 (ip), vehicle: saline) 0 of 10 on day 14 and 4 of 10 on day 14.
